In one assay the target is SS-EGFP-torsinA^E171Q (UniProt O14656). In words: quantitative photobleaching analysis.
In another assay the target is SS-EGFP-torsinA^21-49 (UniProt O14656). The assay can be described thus: fluorescence fluctuation spectroscopy.
The target of a further assay is SS-EGFP-torsinA^K108A (UniProt O14656). The assay can be described thus: quantitative photobleaching analysis.
In assay [1] the target is SS-EGFP-torsinA^ΔE302/303 (UniProt O14656). The assay can be described thus: quantitative photobleaching analysis.
A further assay deals with EGFP-LAP1C^WT (UniProt Q5JTV8). In words: fluorescence fluctuation spectroscopy.
The target of assay [2] is SS-EGFP-torsinA^(ΔNTD, K108A) (UniProt O14656). The assay can be described thus: fluorescence fluctuation spectroscopy.
A further assay has as its target SS-EGFP-torsinA^C49Y (UniProt O14656). The assay can be described thus: fluorescence fluctuation spectroscopy.
In assay [3] the target is SS-EGFP-torsinA^(ΔNTD, ΔE) (UniProt O14656). The assay can be described thus: fluorescence fluctuation spectroscopy.

Sequences of proteins named here, by UniProt entry; tags and fusion partners are left off. A change or cut given only in a name is not applied to a line headed by its entry. Residues count along the entry.
UniProt O14656, whole entry, looked up, stated change not applied: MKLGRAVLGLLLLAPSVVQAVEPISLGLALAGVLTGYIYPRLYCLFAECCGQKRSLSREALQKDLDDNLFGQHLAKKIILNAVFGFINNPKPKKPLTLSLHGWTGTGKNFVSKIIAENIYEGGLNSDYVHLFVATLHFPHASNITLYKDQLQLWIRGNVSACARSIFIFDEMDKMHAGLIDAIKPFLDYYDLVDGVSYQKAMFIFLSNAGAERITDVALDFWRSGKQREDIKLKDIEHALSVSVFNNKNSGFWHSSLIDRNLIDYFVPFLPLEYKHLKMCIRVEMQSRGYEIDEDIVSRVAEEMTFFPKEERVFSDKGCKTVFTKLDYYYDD
UniProt O14656, 21-49: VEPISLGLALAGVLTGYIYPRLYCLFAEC
UniProt Q5JTV8, 122-583: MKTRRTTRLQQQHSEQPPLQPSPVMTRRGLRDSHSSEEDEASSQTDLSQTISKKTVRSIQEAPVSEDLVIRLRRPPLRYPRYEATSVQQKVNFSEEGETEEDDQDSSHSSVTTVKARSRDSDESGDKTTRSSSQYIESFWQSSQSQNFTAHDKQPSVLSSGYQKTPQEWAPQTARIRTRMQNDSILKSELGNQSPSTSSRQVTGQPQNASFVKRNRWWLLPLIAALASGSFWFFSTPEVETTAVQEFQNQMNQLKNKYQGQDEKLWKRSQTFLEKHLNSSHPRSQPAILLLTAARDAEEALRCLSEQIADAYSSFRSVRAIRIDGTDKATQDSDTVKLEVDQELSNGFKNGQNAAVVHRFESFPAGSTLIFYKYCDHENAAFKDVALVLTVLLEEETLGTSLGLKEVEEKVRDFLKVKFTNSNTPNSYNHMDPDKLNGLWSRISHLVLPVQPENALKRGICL

Results are given in words; binding and its absence hold for the method and conditions named. Some entries that bind do so weakly or less than the wild type.

From doi:10.1101/2021.12.09.472013 (bioRxiv, 2021) come the findings set out here.

Turning to “SS-EGFP-torsinA^E171Q (from UniProt O14656 21-332)”, in the assay with SS-EGFP-torsinA^E171Q, the binding entry is on record as “binds”.
Take “SS-EGFP-torsinA^21-49 (from UniProt O14656 21-49) (domain or fragment)”: the binding entry with SS-EGFP-torsinA^21-49 is listed as “no binding”.
With “SS-EGFP-torsinA^K108A (from UniProt O14656 21-332)”, the binding result in the assay with SS-EGFP-torsinA^K108A is given as “binds”.
For the substance “SS-EGFP-torsinA^ΔE302/303 (from UniProt O14656 21-332)”, in assay [1], the binding entry is given as “binds”.
Turning to “EGFP-LAP1C^WT (from UniProt Q5JTV8-4 1-462)”, in the assay with EGFP-LAP1C^WT, the binding entry is given as “no binding (tested: N ≤ 200)”.
Regarding “SS-EGFP-torsinA^(ΔNTD, K108A) (from UniProt O14656 21-332)”, the binding result in assay [2] is listed as “binds”.
On to “SS-EGFP-torsinA^C49Y (from UniProt O14656 21-332)”, for which, in the assay with SS-EGFP-torsinA^C49Y, the binding result is “binds”.
Regarding “SS-EGFP-torsinA^(ΔNTD, ΔE) (from UniProt O14656 21-332)”, the binding entry in assay [3] is given as “binds”.
